# Data published in publication PMC2757719.
# Chains of the proteins cited; added tags and fusions are not shown.
# UniProt Q93009: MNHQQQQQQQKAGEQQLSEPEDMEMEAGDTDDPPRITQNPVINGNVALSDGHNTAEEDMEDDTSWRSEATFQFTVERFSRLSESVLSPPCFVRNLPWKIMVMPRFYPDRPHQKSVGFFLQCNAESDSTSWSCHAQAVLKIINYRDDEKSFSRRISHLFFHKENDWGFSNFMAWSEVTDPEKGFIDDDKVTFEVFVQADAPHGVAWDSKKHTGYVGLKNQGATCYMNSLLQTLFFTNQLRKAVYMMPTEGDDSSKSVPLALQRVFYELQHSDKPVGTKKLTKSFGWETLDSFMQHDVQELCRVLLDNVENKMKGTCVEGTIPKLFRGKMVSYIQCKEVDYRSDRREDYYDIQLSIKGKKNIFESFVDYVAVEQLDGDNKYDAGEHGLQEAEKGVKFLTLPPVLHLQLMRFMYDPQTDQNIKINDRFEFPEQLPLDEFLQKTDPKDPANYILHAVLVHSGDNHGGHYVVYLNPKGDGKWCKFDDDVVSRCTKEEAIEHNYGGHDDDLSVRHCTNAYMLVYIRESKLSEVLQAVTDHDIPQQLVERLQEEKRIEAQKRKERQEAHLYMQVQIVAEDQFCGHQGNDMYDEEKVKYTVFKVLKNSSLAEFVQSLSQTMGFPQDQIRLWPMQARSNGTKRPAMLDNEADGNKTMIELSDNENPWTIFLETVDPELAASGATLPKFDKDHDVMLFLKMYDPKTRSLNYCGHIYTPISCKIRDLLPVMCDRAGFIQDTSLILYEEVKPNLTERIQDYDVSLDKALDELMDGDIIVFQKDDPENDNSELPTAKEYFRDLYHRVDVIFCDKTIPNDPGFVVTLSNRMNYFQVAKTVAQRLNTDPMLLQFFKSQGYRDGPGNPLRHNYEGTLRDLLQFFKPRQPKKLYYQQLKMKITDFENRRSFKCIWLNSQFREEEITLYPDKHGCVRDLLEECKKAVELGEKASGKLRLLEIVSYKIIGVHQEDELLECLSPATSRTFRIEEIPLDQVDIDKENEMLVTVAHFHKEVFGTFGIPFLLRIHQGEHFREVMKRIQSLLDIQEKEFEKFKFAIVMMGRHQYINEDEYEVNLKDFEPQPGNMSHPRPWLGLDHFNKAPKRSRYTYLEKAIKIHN
# These are yes or no findings as the source states them, for the method shown.
# Molecular target: EBNA1 truncation mutant 452–641 (Epstein-Barr virus) (UniProt P03211)
# Test: native gel or EMSA; EBNA1 fragment titrated, preincubated with 10 pmols USP7 or USP7-NTD 10 min at RT before 10 fmoles 32P-labelled DS site 1 DNA (or EBNA1-DNA preformed, then rising USP7, Figure 2C); 20 mM Tris pH 7.5, 200 mM NaCl, 1 µg salmon sperm DNA, 20 µl; 10% polyacrylamide gel; read-out: supershift of the EBNA1-DNA complex; both purified
substance,measurement,value
"USP7 (ubiquitin specific protease USP7), full length (from UniProt Q93009 1-1102) (enzyme)",binding,no binding (tested: 10 pmols of USP7)
